These are yes or no findings as the source states them, for the method shown. Binding seen in cells or lysates may run through a third protein. Some binding calls cover weakened binding; strength is not graded here. Tags and fused reporters may be left off the sequences shown.
What was measured:
Conditions in all cases: remark: other sources report otherwise
[1] = target: T1, HA-VPS3 (human (cDNA from HeLa Kyoto cells)), Q8WUH2; experiment: co-IP; WT HeLa cells with single expression of Myc-VPS41, Myc-VPS8, HA-VPS39 or HA-VPS3; lysate in PBS; IP with anti-Myc or anti-HA antibody and Protein G magnetic beads; endogenous partners detected by western blotting
T1 chain: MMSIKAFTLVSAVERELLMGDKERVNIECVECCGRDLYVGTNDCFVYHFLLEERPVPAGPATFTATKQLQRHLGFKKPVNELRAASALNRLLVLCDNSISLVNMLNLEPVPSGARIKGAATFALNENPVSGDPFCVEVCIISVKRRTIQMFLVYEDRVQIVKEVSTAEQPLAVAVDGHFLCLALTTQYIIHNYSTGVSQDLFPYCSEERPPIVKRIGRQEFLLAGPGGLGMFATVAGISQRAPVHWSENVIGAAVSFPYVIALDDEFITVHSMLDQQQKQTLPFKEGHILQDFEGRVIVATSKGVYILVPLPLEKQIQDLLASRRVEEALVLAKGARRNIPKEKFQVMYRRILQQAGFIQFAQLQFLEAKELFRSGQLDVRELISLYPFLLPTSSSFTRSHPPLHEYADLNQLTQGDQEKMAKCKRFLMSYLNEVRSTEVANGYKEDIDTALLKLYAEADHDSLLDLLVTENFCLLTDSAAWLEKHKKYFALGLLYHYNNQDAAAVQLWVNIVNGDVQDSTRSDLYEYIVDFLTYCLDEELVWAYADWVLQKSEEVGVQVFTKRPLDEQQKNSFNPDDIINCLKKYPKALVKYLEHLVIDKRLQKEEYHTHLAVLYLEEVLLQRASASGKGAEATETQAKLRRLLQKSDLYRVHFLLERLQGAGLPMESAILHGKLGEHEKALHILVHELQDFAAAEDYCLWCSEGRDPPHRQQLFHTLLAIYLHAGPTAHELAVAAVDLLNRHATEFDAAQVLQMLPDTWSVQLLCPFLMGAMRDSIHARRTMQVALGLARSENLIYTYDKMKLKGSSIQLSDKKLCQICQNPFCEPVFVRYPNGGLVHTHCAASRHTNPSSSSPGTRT

[2] = target: T2, Myc-VPS41 (human (cDNA from HeLa Kyoto cells)), P49754; experiment: co-IP; HeLa cells stably expressing V5-VPS16, transiently co-transfected with Myc-VPS41 or Myc-VPS8, His-VPS18, FLAG-VPS11 and HA-VPS39 or HA-VPS3; cells homogenised in PBS with protease inhibitors; IP with anti-Myc antibody and Protein G magnetic beads, 4 °C overnight; blots with anti-tag antibodies
T2 chain: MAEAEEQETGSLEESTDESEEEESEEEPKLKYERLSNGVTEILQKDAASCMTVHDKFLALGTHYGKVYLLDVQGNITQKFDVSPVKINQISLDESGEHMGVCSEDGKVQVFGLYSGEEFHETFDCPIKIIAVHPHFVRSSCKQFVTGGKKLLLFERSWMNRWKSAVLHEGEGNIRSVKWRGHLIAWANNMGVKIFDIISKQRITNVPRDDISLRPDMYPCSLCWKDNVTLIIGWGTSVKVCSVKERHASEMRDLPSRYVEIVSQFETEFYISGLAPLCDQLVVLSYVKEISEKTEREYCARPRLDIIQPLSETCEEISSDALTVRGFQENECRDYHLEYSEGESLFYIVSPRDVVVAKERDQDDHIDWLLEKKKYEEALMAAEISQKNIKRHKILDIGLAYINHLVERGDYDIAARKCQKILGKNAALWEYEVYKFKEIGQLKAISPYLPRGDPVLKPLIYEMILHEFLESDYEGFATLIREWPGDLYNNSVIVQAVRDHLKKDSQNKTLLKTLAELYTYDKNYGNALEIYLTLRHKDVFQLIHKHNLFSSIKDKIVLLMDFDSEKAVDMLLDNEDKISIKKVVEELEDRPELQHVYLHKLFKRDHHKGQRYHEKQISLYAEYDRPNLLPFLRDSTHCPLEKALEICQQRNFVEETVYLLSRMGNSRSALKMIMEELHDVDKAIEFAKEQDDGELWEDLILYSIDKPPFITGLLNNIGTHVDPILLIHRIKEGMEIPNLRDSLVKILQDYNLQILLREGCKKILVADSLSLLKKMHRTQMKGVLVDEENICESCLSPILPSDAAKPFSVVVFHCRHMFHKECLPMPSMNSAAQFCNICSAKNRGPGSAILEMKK

[3] = target: T2, Myc-VPS41 (human (cDNA from HeLa Kyoto …)); experiment: co-IP; WT HeLa cells with single expression of Myc-VPS41, Myc-VPS8, HA-VPS39 or HA-VPS3; lysate in PBS; IP with anti-Myc or anti-HA antibody and Protein G magnetic beads; endogenous partners detected by western blotting

B1: endogenous VPS41, P49754 1-854 (protein)
chain: MAEAEEQETGSLEESTDESEEEESEEEPKLKYERLSNGVTEILQKDAASCMTVHDKFLALGTHYGKVYLLDVQGNITQKFDVSPVKINQISLDESGEHMGVCSEDGKVQVFGLYSGEEFHETFDCPIKIIAVHPHFVRSSCKQFVTGGKKLLLFERSWMNRWKSAVLHEGEGNIRSVKWRGHLIAWANNMGVKIFDIISKQRITNVPRDDISLRPDMYPCSLCWKDNVTLIIGWGTSVKVCSVKERHASEMRDLPSRYVEIVSQFETEFYISGLAPLCDQLVVLSYVKEISEKTEREYCARPRLDIIQPLSETCEEISSDALTVRGFQENECRDYHLEYSEGESLFYIVSPRDVVVAKERDQDDHIDWLLEKKKYEEALMAAEISQKNIKRHKILDIGLAYINHLVERGDYDIAARKCQKILGKNAALWEYEVYKFKEIGQLKAISPYLPRGDPVLKPLIYEMILHEFLESDYEGFATLIREWPGDLYNNSVIVQAVRDHLKKDSQNKTLLKTLAELYTYDKNYGNALEIYLTLRHKDVFQLIHKHNLFSSIKDKIVLLMDFDSEKAVDMLLDNEDKISIKKVVEELEDRPELQHVYLHKLFKRDHHKGQRYHEKQISLYAEYDRPNLLPFLRDSTHCPLEKALEICQQRNFVEETVYLLSRMGNSRSALKMIMEELHDVDKAIEFAKEQDDGELWEDLILYSIDKPPFITGLLNNIGTHVDPILLIHRIKEGMEIPNLRDSLVKILQDYNLQILLREGCKKILVADSLSLLKKMHRTQMKGVLVDEENICESCLSPILPSDAAKPFSVVVFHCRHMFHKECLPMPSMNSAAQFCNICSAKNRGPGSAILEMKK
binding [1]: binds

B2: HA-VPS3, Q8WUH2 1-860 (protein)
chain: MMSIKAFTLVSAVERELLMGDKERVNIECVECCGRDLYVGTNDCFVYHFLLEERPVPAGPATFTATKQLQRHLGFKKPVNELRAASALNRLLVLCDNSISLVNMLNLEPVPSGARIKGAATFALNENPVSGDPFCVEVCIISVKRRTIQMFLVYEDRVQIVKEVSTAEQPLAVAVDGHFLCLALTTQYIIHNYSTGVSQDLFPYCSEERPPIVKRIGRQEFLLAGPGGLGMFATVAGISQRAPVHWSENVIGAAVSFPYVIALDDEFITVHSMLDQQQKQTLPFKEGHILQDFEGRVIVATSKGVYILVPLPLEKQIQDLLASRRVEEALVLAKGARRNIPKEKFQVMYRRILQQAGFIQFAQLQFLEAKELFRSGQLDVRELISLYPFLLPTSSSFTRSHPPLHEYADLNQLTQGDQEKMAKCKRFLMSYLNEVRSTEVANGYKEDIDTALLKLYAEADHDSLLDLLVTENFCLLTDSAAWLEKHKKYFALGLLYHYNNQDAAAVQLWVNIVNGDVQDSTRSDLYEYIVDFLTYCLDEELVWAYADWVLQKSEEVGVQVFTKRPLDEQQKNSFNPDDIINCLKKYPKALVKYLEHLVIDKRLQKEEYHTHLAVLYLEEVLLQRASASGKGAEATETQAKLRRLLQKSDLYRVHFLLERLQGAGLPMESAILHGKLGEHEKALHILVHELQDFAAAEDYCLWCSEGRDPPHRQQLFHTLLAIYLHAGPTAHELAVAAVDLLNRHATEFDAAQVLQMLPDTWSVQLLCPFLMGAMRDSIHARRTMQVALGLARSENLIYTYDKMKLKGSSIQLSDKKLCQICQNPFCEPVFVRYPNGGLVHTHCAASRHTNPSSSSPGTRT
binding [2]: binds

B3: endogenous VPS3, Q8WUH2 1-860 (protein)
chain: MMSIKAFTLVSAVERELLMGDKERVNIECVECCGRDLYVGTNDCFVYHFLLEERPVPAGPATFTATKQLQRHLGFKKPVNELRAASALNRLLVLCDNSISLVNMLNLEPVPSGARIKGAATFALNENPVSGDPFCVEVCIISVKRRTIQMFLVYEDRVQIVKEVSTAEQPLAVAVDGHFLCLALTTQYIIHNYSTGVSQDLFPYCSEERPPIVKRIGRQEFLLAGPGGLGMFATVAGISQRAPVHWSENVIGAAVSFPYVIALDDEFITVHSMLDQQQKQTLPFKEGHILQDFEGRVIVATSKGVYILVPLPLEKQIQDLLASRRVEEALVLAKGARRNIPKEKFQVMYRRILQQAGFIQFAQLQFLEAKELFRSGQLDVRELISLYPFLLPTSSSFTRSHPPLHEYADLNQLTQGDQEKMAKCKRFLMSYLNEVRSTEVANGYKEDIDTALLKLYAEADHDSLLDLLVTENFCLLTDSAAWLEKHKKYFALGLLYHYNNQDAAAVQLWVNIVNGDVQDSTRSDLYEYIVDFLTYCLDEELVWAYADWVLQKSEEVGVQVFTKRPLDEQQKNSFNPDDIINCLKKYPKALVKYLEHLVIDKRLQKEEYHTHLAVLYLEEVLLQRASASGKGAEATETQAKLRRLLQKSDLYRVHFLLERLQGAGLPMESAILHGKLGEHEKALHILVHELQDFAAAEDYCLWCSEGRDPPHRQQLFHTLLAIYLHAGPTAHELAVAAVDLLNRHATEFDAAQVLQMLPDTWSVQLLCPFLMGAMRDSIHARRTMQVALGLARSENLIYTYDKMKLKGSSIQLSDKKLCQICQNPFCEPVFVRYPNGGLVHTHCAASRHTNPSSSSPGTRT
binding [3]: binds

From publication PMC10618185
